Results are given in words; binding and its absence hold for the method and conditions named. In cells and extracts the contact can be indirect. Binding calls can cover weak binding; strength is not graded here. For some assays here: Tags and fused reporters may be left off the sequences shown.

Experiment [1] concerns the target T1, Flag-tagged STING (UniProt Q3TBT3).
T1 sequence: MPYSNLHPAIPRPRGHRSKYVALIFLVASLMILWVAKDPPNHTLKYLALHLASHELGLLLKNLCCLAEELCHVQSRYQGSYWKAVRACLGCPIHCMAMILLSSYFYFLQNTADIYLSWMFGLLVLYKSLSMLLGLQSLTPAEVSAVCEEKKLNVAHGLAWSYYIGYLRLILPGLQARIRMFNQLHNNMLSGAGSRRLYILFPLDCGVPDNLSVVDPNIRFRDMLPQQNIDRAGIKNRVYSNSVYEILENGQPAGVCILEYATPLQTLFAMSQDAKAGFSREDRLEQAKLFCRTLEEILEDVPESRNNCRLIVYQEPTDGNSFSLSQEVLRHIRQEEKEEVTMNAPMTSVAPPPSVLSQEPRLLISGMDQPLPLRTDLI
Briefly: co-IP; HEK293T cells transfected with tagged plasmids; IP buffer 1.0% Nonidet P 40, 50 mM Tris-HCl pH 7.4, 50 mM EDTA, 150 mM NaCl.

Experiment [2] concerns the target T2, Stimulator of interferon genes (STING), endogenous in mouse peritoneal macrophages (mouse (endogenous in peritoneal macrophages)) (UniProt Q3TBT3).
T2 sequence: T1 sequence
In words: co-IP; endogenous proteins in mouse peritoneal macrophages, resting or stimulated with ISD or cGAMP; IP buffer 1.0% Nonidet P 40, 50 mM Tris-HCl pH 7.4, 50 mM EDTA, 150 mM NaCl; antibody with protein G Plus-Agarose overnight, five washes.

Take HA-tagged ZAPL: the binding result in experiment [1] is “binds”.
With “ZAPS (ZC3HAV1 short isoform), endogenous in mouse peritoneal macrophages”, the binding entry in experiment [2] is recorded as “binds”.

The record behind these values is publication PMC11526107.
